Values of other authors as cited in patent publication US6362392B1, “Nude mouse model for the growth and treatment of human neurally-derived tumors” (The General Hospital Corporation, priority 1990, dated 2002).
Read-outs that look alike come from different tables or passages of the source. For at least one compound, name, drawing or mass did not settle the structure.

Tested on: angiogenesis

**Q.** Which “angiostatic activity relative to hydrocortisone” value (2 μg, in the presence of heparin) does the source give for C[C@@H]1C[C@H]2[C@@H]3CCC4=CC(=O)C=C[C@]4(C)[C@@]3(F)[C@@H](O)C[C@]2(C)[C@@]1(O)C(=O)CO [dexamethasone] here?
**A.** Its value is 24 fold.

**Q.** What about the angiostatic activity (3 to 200 μg) of the same compound?
**A.** The angiostatic activity was “no angiostatic activity”.

**Q.** And the angiostatic activity (50-60 μg, in the presence of heparin)?
**A.** The angiostatic activity was “not angiostatic”.
